Here are results for ten compounds from the supplement of paper PMC10689618.

This is one part of the list. Single values are uncertain, as repeats are few or missing.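 Primary human fetal astrocytes engulfed labelled rat cortical synaptosomes, measured as a red/green ratio corrected for calcein live-cell signal and scaled to the plate median. Toxicity meant calcein falling over 30%; decreased phagocytosis meant below 70% of median above 5 µM.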

Assay [1] concerns Human fetal astrocytes. Kind of assay: loss of total cells relative to no-compound high-control median (toxicity); higher = more toxic (fewer cells). The following applies: 24 h.
Assay [2] relates to Human fetal astrocytes. As to the kind of experiment: synaptosome phagocytosis (pHrodo/calcein intensity ratio) relative to plate median of data wells; higher = more phagocytosis. The following applies: 24 h.

`Nc1ccc(C(=O)O)c(O)c1`: the “loss of total cells” value is -39.8% in assay [1] (1.39 µM); -4.6% in assay [1] (2.78 µM); -2.1% in assay [1] (5.56 µM); -14.1% in assay [1] (11.11 µM); -3.4% in assay [1] (22.22 µM). Further, the synaptosome phagocytosis in assay [2] (1.39 µM) was 96.7%; in assay [2] (2.78 µM), 89.5%; in assay [2] (5.56 µM), 103%; in assay [2] (11.11 µM), 91%; in assay [2] (22.22 µM), 141%.
Turning to `Cc1[nH]ccc2c1[nH]c1cc(=O)ccc12`, the “loss of total cells” value in assay [1] (1.39 µM) is 4.9%; in assay [1] (2.78 µM), -12.6%; in assay [1] (5.56 µM), -5.1%; in assay [1] (11.11 µM), 7.4%; in assay [1] (22.22 µM), 5.2%. The synaptosome phagocytosis is 119% in assay [2] (1.39 µM); 85.9% in assay [2] (2.78 µM); 135% in assay [2] (5.56 µM); 120% in assay [2] (11.11 µM); 102% in assay [2] (22.22 µM).
Consider `CC(=O)Oc1c(C)c(C)c2c(c1C)CCC(C)(CCCC(C)CCCC(C)CCCC(C)C)O2` (stereo not drawn) [alpha-TOCHOPHERYL ACETATE], for which the “loss of total cells” value in assay [1] (1.39 µM) was -14.9%; in assay [1] (2.78 µM) it was 0.3%; in assay [1] (5.56 µM), -8.7%; in assay [1] (11.11 µM), -17.2%; in assay [1] (22.22 µM) it was 11.9%. Besides, the synaptosome phagocytosis in assay [2] (1.39 µM) was 83.2%; in assay [2] (2.78 µM), 104%; in assay [2] (5.56 µM) it was 102%; in assay [2] (11.11 µM) it was 127%; in assay [2] (22.22 µM), 110%.
As to `COc1ccc(-c2cc(=O)c3c(O)cc(OC)c(OC)c3o2)c(OC)c1`, the “loss of total cells” value in assay [1] (1.39 µM) is -17.2%; in assay [1] (2.78 µM) it was 4.7%; in assay [1] (5.56 µM), 2.9%; in assay [1] (11.11 µM) it was 4.7%; in assay [1] (22.22 µM) it was 5.9%. The synaptosome phagocytosis in assay [2] (1.39 µM) is 127%; in assay [2] (2.78 µM), 156%; in assay [2] (5.56 µM), 91%; in assay [2] (11.11 µM), 101%; in assay [2] (22.22 µM) it was 121%.
In the case of `CCOc1ccc(C(=O)c2ccc(OC)c(O)c2O)cc1`, the “loss of total cells” value in assay [1] (1.39 µM) was -4%; in assay [1] (2.78 µM) it was 8.6%; in assay [1] (5.56 µM), 35.1%; in assay [1] (11.11 µM), 54.8%; in assay [1] (22.22 µM), 7.8%. In addition, the synaptosome phagocytosis in assay [2] (1.39 µM) is 92%; in assay [2] (2.78 µM), 100%; in assay [2] (5.56 µM), 120%; in assay [2] (11.11 µM), 127%; in assay [2] (22.22 µM) it was 95.6%.
`O=C(O[C@@H]1Cc2c(O)cc(O)cc2O[C@@H]1c1cc(O)c(O)c(O)c1-c1c([C@H]2Oc3cc(O)cc(O)c3C[C@H]2OC(=O)c2cc(O)c(O)c(O)c2)cc(O)c(O)c1O)c1cc(O)c(O)c(O)c1`: the “loss of total cells” value was found to be 6.9% in assay [1] (1.39 µM); 8% in assay [1] (2.78 µM); 32.8% in assay [1] (5.56 µM); 23.2% in assay [1] (11.11 µM); 43.3% in assay [1] (22.22 µM). For the same compound, the synaptosome phagocytosis was 127% in assay [2] (1.39 µM); 112% in assay [2] (2.78 µM); 105% in assay [2] (5.56 µM); 107% in assay [2] (11.11 µM); 165% in assay [2] (22.22 µM).
As for `COc1cc(-c2coc3cc(O)c(OC)c(O)c3c2=O)cc(O)c1OC`, the “loss of total cells” value is -10.5% in assay [1] (1.39 µM); -8.6% in assay [1] (2.78 µM); 38.9% in assay [1] (5.56 µM); 12.9% in assay [1] (11.11 µM); 35.2% in assay [1] (22.22 µM). Moreover, the synaptosome phagocytosis in assay [2] (1.39 µM) is 101%; in assay [2] (2.78 µM), 104%; in assay [2] (5.56 µM), 148%; in assay [2] (11.11 µM), 109%; in assay [2] (22.22 µM), 150%.
For `CCCCCc1c2c(cc(O)c1C(=O)O)OC(=O)c1c(cc(OC)cc1C(=O)CCCC)O2`, the “loss of total cells” value in assay [1] (1.39 µM) is 0.4%; in assay [1] (2.78 µM), 7.3%; in assay [1] (5.56 µM) it was -18.3%; in assay [1] (11.11 µM) it was 34.2%; in assay [1] (22.22 µM), 10%. Further, the synaptosome phagocytosis in assay [2] (1.39 µM) is 107%; in assay [2] (2.78 µM), 120%; in assay [2] (5.56 µM) it was 71.3%; in assay [2] (11.11 µM), 94.9%; in assay [2] (22.22 µM), 99.7%.
`C#CCCCCCCCCCCCC(O)CC(O)COC(C)=O` (stereo not given): the “loss of total cells” value was 9.7% in assay [1] (1.39 µM); 17.7% in assay [1] (2.78 µM); -0.7% in assay [1] (5.56 µM); 6.3% in assay [1] (11.11 µM); 13.6% in assay [1] (22.22 µM). For the same compound, the synaptosome phagocytosis in assay [2] (1.39 µM) was 72.8%; in assay [2] (2.78 µM), 70.8%; in assay [2] (5.56 µM) it was 70.3%; in assay [2] (11.11 µM) it was 71.6%; in assay [2] (22.22 µM) it was 48.6%.
`CC(=O)O[C@@H]1CC2C(C)(C)C(=O)CC[C@]2(C)C2CC[C@]3(C)C(=CC(=O)O[C@H]3c3ccoc3)[C@@]21C` (stereo not given in full): the “loss of total cells” value in assay [1] (1.39 µM) is 9.7%; in assay [1] (2.78 µM), 3.2%; in assay [1] (5.56 µM) it was 11.6%; in assay [1] (11.11 µM), -16.3%; in assay [1] (22.22 µM), 0%. In addition, the synaptosome phagocytosis was 77.1% in assay [2] (1.39 µM); 130% in assay [2] (2.78 µM); 93.7% in assay [2] (5.56 µM); 92.5% in assay [2] (11.11 µM); 126% in assay [2] (22.22 µM).
